Drawing on patent US11518785B2 (CAREGEN CO., LTD., priority 2017, dated 2022), this text covers crude mass and crude yield for 1 sequence.

Where a sequence shows no end group, the ends are not given.

This data set can be described thus: general procedure: Fmoc solid-phase peptide synthesis; Leu-CTC resin; HBTu/HoBt/DIEA. Conditions: whole synthesis, scale 200 mmol.

Turning to FCLGPCPYIWSL, the crude mass turned out to be 129.8 g and the crude yield is 92.8%.
